Measured values as given in patent US20120208209A1.
These are yes or no findings as the source states them, for the method shown. Some entries that bind do so weakly or less than the wild type. Values belong to the binder of their own block, whether it stands above or below them.

Protein sequences, listed by entry. Tags and fused reporters are not part of them. Residues count along the entry.
UniProt Q8NBP7, residues 31-692: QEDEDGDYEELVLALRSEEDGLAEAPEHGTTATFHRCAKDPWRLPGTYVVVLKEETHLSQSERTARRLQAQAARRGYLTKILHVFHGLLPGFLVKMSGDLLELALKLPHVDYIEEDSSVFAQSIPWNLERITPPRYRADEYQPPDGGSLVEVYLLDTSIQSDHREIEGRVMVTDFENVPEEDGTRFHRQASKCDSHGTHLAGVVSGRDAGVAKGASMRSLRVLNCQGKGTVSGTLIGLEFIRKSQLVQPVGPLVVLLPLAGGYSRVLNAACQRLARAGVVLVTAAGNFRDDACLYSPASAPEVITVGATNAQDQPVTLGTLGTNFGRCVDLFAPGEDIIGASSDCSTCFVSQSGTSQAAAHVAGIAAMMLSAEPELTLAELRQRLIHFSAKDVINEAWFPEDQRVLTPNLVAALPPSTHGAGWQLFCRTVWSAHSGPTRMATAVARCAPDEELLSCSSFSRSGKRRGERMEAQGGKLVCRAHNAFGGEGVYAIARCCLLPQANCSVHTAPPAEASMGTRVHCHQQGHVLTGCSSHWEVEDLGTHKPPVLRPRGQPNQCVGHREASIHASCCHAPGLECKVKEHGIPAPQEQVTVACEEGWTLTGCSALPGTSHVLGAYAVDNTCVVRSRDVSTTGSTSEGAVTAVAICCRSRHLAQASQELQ

Biological target: human PCSK9 (human) (UniProt Q8NBP7)
Assay: ELISA, purified soluble Fab on coated PCSK9

- binding: binds
B1: AX213 Fab (Fab, V domains shown)
VH: QVQLLESGGGLVQPGGSLRLSCKASGYTFSRYGINWVRQAPGKGLEWIGRIDPGNGGTRYNEKFKGKATISRDNSKNTLYLQMNSLRAEDTAVYYCARANDGYSFDYWGQGTLVTVSS
VL: EIVLTQSPATLSLSPGERATITCRASQYVGSYLNWYQQKPGQAPRLLIYDASNRATGIPARFSGSGSGTDFTLTISSLEPEDFAVYYCQVWDSSPPVVFGGGTKVEIKR

- binding: binds
B2: AX1 Fab (Fab, V domains shown)
VH: EVQLLESGGGLVQPGGSLRLSCKASGFTFTSYYMHWVRQAPGKGLEWIGRINPDSGSTKYNEKFKGRATISRDNSKNTLYLQMNSLRAEDTAVYYCARGGRLSWDFDVWGQGTLVTVSS
VL: DIQMTQSPSSLSASVGDRVTITCRASQDISRYLAWYQQKPGKAPKLLIYAASSLQSGVPSRFSGSGSGTDFTLTISSLQPEDFATYYCAAYDYSLGGYVFGDGTKVEIKR
